Data taken from PMC10375191 (Advanced Science, 2023).

Test: general procedure: Fmoc solid-phase peptide synthesis; Rink amide MBHA resin, Wang resin; DIC/HOBt
Settings: conjugation step, analytical HPLC

With H-PLGVRGRHYNNPIWRQRY-NH2 as the substance, how does the “final HPLC purity” value read?
The value was “above 95%”.
